Laboratory results from article PMC2742731.
These are yes or no findings as the source states them, for the method shown. Some results given as binding are weak or reduced against the parent protein; the word gives no strength. Sequences can lack the tags named with a protein.

B1: SYP-4 (prey found in the yeast two-hybrid library screen) (protein, UniProt Q9N5K3 1-605)
chain: MSFPTLQVRPNEKNPKVLRCHEFLRQSNQLVERNMINTEGRKMLAKLLTKMVSEAKGIYALDERRAELAKSGKLQEKLKSAYQTSLTVMEDRLHIAELSRQVQEKKLTVQQKYYECDDLRKSVQETNTEARRVQEINEQRLVDTTRATEELIVKSASILKNLENSSDVHKLRAMEEEKRILEEVVEGLRDQKKCLADDIRTKKATLKAESKKSFEKTVIECAKHYKLHQSLMPKLDKSKRSLETLKDEEENRRICGSLSLDETMQFDRSFILASMDKTNKPEKAVQQLTSKSSEVSITPQISETAKSSFSKEPIPTQHPMEVGEEPVIEHSAEESVHIEPPNVTEIREVVPQITIQPTRQDSVVQRDAEELDTSAVPSPQPESILDEPEEEEEELSNHENHADQSMDVMEVDQEVPEESPMEVGEQEEIEQPSVFKDILATEQAALSQEQEPEIVEKQADNDVQFVDDQQVGAQLDVEDEEEVMSENGSNKSNNFSFNFFGNSKGTSAGEGGGEGNFDFNFDGIGAGDDGSNNGGSTGDLDFLNYDGEDEGKGSGNTQSDPFGFASNGNAAGGGGDGSFNFNFDGDGEGGATSGAGGNSTSFFNF
B2: SYP-4 full length fused to the activation domain (AD) of GAL4 (protein, UniProt Q9N5K3 1-605)
chain: B1 chain

Key:
[1] = target: T1, SYP-3 full length fused to the DNA binding domain (DB) of GAL4 (C. elegans) (UniProt O62238); assay: two-hybrid; library screen: SYP-1, SYP-2 and SYP-3 full-length constructs and N- and C-terminal truncations as baits; cDNA library from mixed-stage worms (SYP-1 and SYP-2 baits also on an ORFeome library)
T1 sequence: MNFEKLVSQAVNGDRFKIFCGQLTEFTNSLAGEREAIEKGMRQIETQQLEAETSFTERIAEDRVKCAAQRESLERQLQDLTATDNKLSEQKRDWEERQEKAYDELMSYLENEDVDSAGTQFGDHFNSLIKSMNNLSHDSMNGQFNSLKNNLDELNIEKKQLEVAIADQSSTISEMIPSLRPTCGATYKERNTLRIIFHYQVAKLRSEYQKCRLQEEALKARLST

[2] = target: T1, SYP-3 full length fused to the DNA binding domain (DB) of GAL4 (C. elegans); assay: two-hybrid; direct test: SYP-1, SYP-2, SYP-3 full length, ΔN and ΔC fused to GAL4 DB, SYP-4 full length fused to GAL4 AD; β-galactosidase activity (X-Gal) and growth on 20 mM 3-AT plates

| Binder | binding [1] | binding [2] |
| --- | --- | --- |
| B1 | binds |  |
| B2 |  | binds |
